The whole screen tested about 300,000 compounds, of which about 5,400 (1.8%) were called active. The inconclusive results got no clear call from the source; some entries with a clear call stand among them for comparison. Calls follow the shape of the full dose curve; tested in HEK293 cells. Where the call is inconclusive, the potency comes from a doubtful curve fit.
Assay: qHTS for inhibitors of binding or entry into cells for Marburg Virus
Conditions: Marburg virus pseudotyped entry inhibition, cell reporter; series mostly up to 37.8 µM
Potency is read from the fitted curve at half-maximal effect.

Compound	Potency
COC(=O)c1cc(COc2ccc3c4c(c(=O)oc3c2)CCC4)c(C)o1	inactive
COc1ccc(-c2noc(CSc3nnc(C)n3-c3cccc(C)c3)n2)cc1	inactive
O=C(c1cccc(S(=O)(=O)N2CCCc3ccccc32)c1)N1CCN(c2ccccc2)CC1	inconclusive: 35.5 µM [inhibitor, single point]
O=C(O)c1ccc(N/N=C/c2cn(-c3ccccc3)nc2-c2cccs2)cc1	active: 4.47 µM
COc1ccc(N2CCN(C(=O)c3cccc(NC(=O)c4ccco4)c3)CC2)cc1	inactive
CCOc1ccc(N2C(=O)c3[nH]nc(-c4ccc(OC)cc4)c3C2c2cccs2)cc1 (centres undefined)	active: 7.94 µM
CSc1cccc(N2CC(C(=O)N(Cc3nnc(-c4ccccc4Cl)o3)C3CC3)CC2=O)c1 (centres undefined)	inconclusive: 35.5 µM [inhibitor, single point]
COC(=O)COC(=O)c1ccccc1NC(=O)c1ccccc1	inactive
CCN(CC)C(=O)Oc1nnc(SC(C)C)n1-c1ccc(Cl)c(Cl)c1	inconclusive: 35.5 µM [inhibitor, single point]
CC(NC(=O)c1cc(-c2ccncc2)nc2ccc(Cl)cc12)C1CCCO1 (centres undefined)	inactive
CCOc1ccc2nc(SCC(=O)NC(=O)NCc3ccco3)sc2c1	inactive
Cc1ccc(C(=O)N2CCN(c3ccccn3)CC2)cc1[N+](=O)[O-]	inconclusive: 1.26 µM [inhibitor, single point]
O=C1CCc2cc(S(=O)(=O)NC(C(=O)Nc3cccc(F)c3)c3ccccc3)ccc2N1 (centres undefined)	inconclusive: 35.5 µM [activator, single point]
COCCCNC(=O)c1ccc2c3c(onc13)-c1ccccc1C2=O	inconclusive: 20 µM [inhibitor, single point]
Cc1[nH]c2ccccc2c1N=Nc1c(C)n(C)n(-c2ccccc2)c1=O	inconclusive: 3.16 µM [inhibitor, single point]
O=C(CSc1nnc(CNC(=O)C23CC4CC(CC(C4)C2)C3)n1-c1ccccc1)Nc1ccc(F)cc1	inconclusive: 35.5 µM [inhibitor, single point]
Cc1ccc(C)c(Nc2nnc(-c3ccc(C)c(S(=O)(=O)NCC4CCCO4)c3)c3ccccc23)c1 (centres undefined)	inconclusive: 20 µM [inhibitor, single point]
CC(C)[C@H](NS(=O)(=O)c1ccccc1)C(=O)OCC(=O)NCc1ccc2c(c1)OCO2	inconclusive: 22.4 µM [inhibitor, single point]
COc1ccc(NC(=O)CSc2nnc(Cc3cccn3C)n2-c2ccc(F)cc2)cc1	inconclusive: 0.411 µM [inhibitor, partial curve, poor fit]

— PubChem BioAssay AID540276 (National Center for Advancing Translational Sciences (NCATS), 2011)
